Experimental findings from article PMC8914023 are described below.

Protein sequences, listed by entry. Tags and fused reporters are not part of them.
UniProt C4LVG4: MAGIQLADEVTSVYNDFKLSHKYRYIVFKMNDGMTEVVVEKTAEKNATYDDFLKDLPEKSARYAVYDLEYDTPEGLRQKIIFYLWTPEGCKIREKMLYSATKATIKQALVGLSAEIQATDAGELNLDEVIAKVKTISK

The target in this assay is Entamoeba histolytica actophorin (EhActo) (Entamoeba histolytica) (UniProt C4LVG4). In words: SEC; gel filtration on G75 superdex, second step of the purification of EhActo; both purified.

These are yes or no findings as the source states them, for the method shown.

Take “Entamoeba histolytica actophorin (EhActo) (from UniProt C4LVG4 1-138)”: the binding entry was “no binding”.
